The values below come from paper PMC12431657, “Discovery and mechanistic insights of dibenzoylmethane as a broad spectrum inhibitor of coronavirus” (PLOS Pathogens, 2025).

Where a name gives a salt, the structure may show the parent alone. Read-outs that look alike come from different tables or passages of the source. Out of some 3,300 compounds screened, about 95 (3%) showed an effect of 50% or more. Some of the results follow.

The test relates to HCoV-229E. Also noted: species or system Huh-7; HTS, protection from HCoV-229E induced cell death, luminescent cell viability (CellCounting-Lite 2.0), inhibition rate. The following applies: 24 h post infection, 1 h compound pre-incubation, 10 µM, inhibitor.

For the molecule `CCCCCCCCCCCCCCCC(=O)O` [Palmitic acid], the “229E Inhibition rate” value came out at 22%. The same measure, in the same setting: the same measure for `C/C(=C\C(=O)OCCCCCCCCC(=O)O)C[C@@H]1OC[C@H](C[C@@H]2O[C@H]2[C@@H](C)[C@H](C)O)[C@@H](O)[C@H]1O` [Mupirocin]: 43.8%; for `CC(=O)N[C@H]1[C@H](O[C@@H]([C@H](O)[C@H](C=O)NC(C)=O)[C@H](O)CO)O[C@H](CO)[C@@H](O[C@@H]2O[C@H](CO)[C@@H](O)[C@H](O)[C@H]2NC(C)=O)[C@@H]1O` [N,N',N''-Triacetylchitotriose]: 8%. Take `CN1CCc2cc3c(cc2C1O)OCO3` (centres unmarked) [Hydrastinine (hydrochloride)]: under “229E Inhibition rate, 24 h”, the “229E Inhibition rate” value stood at 11.1%. Take `COc1c(O)cc2oc(-c3ccccc3)cc(=O)c2c1O` [Oroxylin A]: the “229E Inhibition rate” value is given as 8%.

`C/C=C/C=C/C=C\CC/C=C/C(=O)NCC(C)(C)O` [Hydroxy-α-sanshool]: the “229E Inhibition rate” value amounted to 19.7%.

Regarding `C[C@@H]1O[C@@H](OC[C@H]2O[C@@H](OCCc3ccc(O)c(O)c3)[C@H](O)[C@@H](OC(=O)/C=C/c3ccc(O)c(O)c3)[C@@H]2O)[C@H](O)[C@H](O)[C@H]1O` [Isoforsythiaside], the “229E Inhibition rate” value (229E Inhibition rate, 24 h) turned out to be 3.4%. `COc1cc2c(c(OC)c1OC)-c1c(cc3c(c1OC)OCO3)C[C@H](C)[C@H](C)C2` [Schisandrin B]: the “229E Inhibition rate” value (229E Inhibition rate, 24 h) turned out to be 56.2%. Consider `C[C@H](CC[C@@H](O[C@@H]1O[C@H](CO[C@@H]2O[C@H](CO)[C@@H](O)[C@H](O)[C@H]2O)[C@@H](O)[C@H](O)[C@H]1O[C@@H]1O[C@H](CO)[C@@H](O)[C@H](O)[C@H]1O)C(C)(C)O)[C@H]1CC[C@@]2(C)[C@@H]3CC=C4[C@@H](CC[C@H](O[C@@H]5O[C@H](CO)[C@@H](O[C@@H]6O[C@H](CO)[C@@H](O)[C@H](O)[C@H]6O)[C@H](O)[C@H]5O)C4(C)C)[C@]3(C)[C@H](O)C[C@]12C` [Isomogroside V], for which the “229E Inhibition rate” value is given as 20.2%.

For `C[C@@H]1[C@H]2[C@H](O[C@@H]3O[C@H](CO)[C@@H](O)[C@H](O)[C@H]3O)OC=C(C(=O)O)[C@H]2C[C@@H]1O` [Loganic acid], the “229E Inhibition rate” value turned out to be 15.6%. Regarding `c1cc2c(cc1[C@H]1OC[C@@H]3[C@H]1CO[C@H]3c1ccc3c(c1)OCO3)OCO2` [(-)-Asarinin], the “229E Inhibition rate” value is given as 9.2%. On to `Oc1cc(O)c2c(c1)O[C@@]1(c3ccc(O)c(O)c3)Oc3cc(O)c4c(c3[C@@H]2[C@H]1O)O[C@H](c1ccc(O)c(O)c1)[C@H](O)C4` [Procyanidin A2], for which the “229E Inhibition rate” value is 11.8%.

Consider `CCCCCCCC/C=C/CCCCCCCC(=O)O` [Elaidic acid], for which the “229E Inhibition rate” value amounted to 15%. Same read-out and setting: the same measure for `CC(C)(CC(=O)O)CC(=O)O` [3,3-Dimethylglutaric acid]: 5.4%; for `COc1ccc(C(C)=O)cc1O` [3-Hydroxy-4-methoxyacetophenone]: 50.5%; for `Cn1cnc(CCN)c1` [1-Methylhistamine (dihydrochloride)]: 11.2%. `OC[C@H]1O[C@@H](Oc2c[nH]c3ccccc23)[C@H](O)[C@@H](O)[C@@H]1O` [Indican]: the “229E Inhibition rate” value was 16.8%.

As to `CC=CC(=O)C1=C(C)CCCC1(C)C` [β-Damascone], the “229E Inhibition rate” value is recorded as 27.1%. On the same count and under the same terms, the same measure for `C[C@H]1O[C@@H](n2cnc3c(N)ncnc32)[C@H](O)[C@@H]1O` [5'-Deoxyadenosine]: 24.8%; for `CCCCCCCC(O)CC(=O)O` (centres unmarked) [3-Hydroxycapric acid]: 14.4%. Still for that read-out and setting: the same measure for `C=C[C@H]1CN2CC[C@H]1C[C@@H]2[C@@H](O)c1ccnc2ccccc12` [Cinchonine]: 53.6%. Still for that read-out and setting: the same measure for `COC1=CC(=O)c2ccccc2C1=O` [Lawsone methyl ether]: 15.9%. With `O=[N+]([O-])c1ccc(O)c(O)c1` [4-Nitrocatechol], the “229E Inhibition rate” value is 4.6%. On the same count and under the same terms, the figure for `COc1cc(O)cc2c1C(=O)C[C@@H](c1ccccc1)O2` [Alpinetin] is 10.1%; for `O=C(O)C1CCCCN1` (centres unmarked) [Pipecolic acid] it is 19.9%; for `CNC(=S)NC` [N,N'-Dimethylthiourea] it is 6.9%. Still for that read-out and setting: the same measure for `NC(=O)CC[C@H](N)C(=O)O` [L-Glutamine]: 10.3%; for `CCCCCCCCCCCCC(=O)OC` [Methyl tridecanoate]: 30.8%; for `O=C1CCNC(=O)N1` [Dihydrouracil]: 0%. As to `CCCCCCCC/C=C\CCCCCCCC(=O)OCC` [Ethyl oleate], the “229E Inhibition rate” value is listed as 36.8%. Same read-out and setting: the same measure for `COc1ccccc1/C=C/C(=O)O` [2-Methoxycinnamic acid]: 7.5%. Same read-out and setting: the figure for `NC(Cc1c[nH]c2ccccc12)C(=O)O` (racemic) [DL-Tryptophan] is 15.7%; for `CC(C)=CC[C@@H](OC(=O)C(C)C)C1=CC(=O)c2c(O)ccc(O)c2C1=O` [Isobutylshikonin] it is 10.3%; for `COc1c(O)cc2oc(-c3ccc(O)c(O)c3)cc(=O)c2c1O` [Nepetin] it is 40.3%. As for `C[C@H]1[C@H](C)CC[C@]2(C(=O)O[C@@H]3O[C@H](CO[C@@H]4O[C@H](CO)[C@@H](O[C@@H]5O[C@H](C)[C@H](O)[C@@H](O)[C@H]5O)[C@H](O)[C@H]4O)[C@@H](O)[C@H](O)[C@H]3O)CC[C@]3(C)C(=CC[C@@H]4[C@@]5(C)C[C@@H](O)[C@H](O)[C@@](C)(CO)[C@@H]5CC[C@]43C)[C@H]12` [Asiaticoside], the “229E Inhibition rate” value turned out to be 8.4%. Still for that read-out and setting: the same measure for `C=C1CC/C=C(\C)CC[C@@H]2[C@@H]1CC2(C)C` [β-Caryophyllene]: 27.2%; for `CCCCCCCCCC[C@H](C(=O)O)[C@]1(C(=O)O)CCC(=O)O1` [Spiculisporic acid]: 11.6%; for `CC(C)CCC[C@@H](C)[C@H]1CC[C@H]2C3=CC=C4C[C@@H](O)CC[C@]4(C)[C@H]3CC[C@]12C` [7-Dehydrocholesterol]: 15.2%. Same read-out and setting: the same measure for `O=C(O)CNCC(=O)O` [Iminodiacetic acid]: 6.4%. `Nc1ccccc1C(=O)C[C@H](N)C(=O)O` [L-Kynurenine]: under “229E Inhibition rate, 24 h”, the “229E Inhibition rate” value came to 40.2%. In the case of `CC(C)(O[C@@H]1O[C@H](CO)[C@@H](O)[C@H](O)[C@H]1O)[C@@H]1CC[C@](C)([C@H]2[C@@H](O)C[C@@]3(C)[C@@H]4C[C@H](O)[C@H]5C(C)(C)[C@@H](O[C@@H]6OC[C@@H](O)[C@H](O)[C@H]6O)CC[C@@]56C[C@@]46CC[C@]23C)O1` [Isoastragaloside IV], the “229E Inhibition rate” value is listed as 11.5%.

For the molecule `C[C@@H]1O[C@@H](O[C@@H]2C(=O)c3c(O)cc(O)cc3O[C@H]2c2cc(O)cc(O)c2)[C@H](O)[C@H](O)[C@H]1O` [Neosmitilbin], the “229E Inhibition rate” value was 11.7%. The same measure, in the same setting: the same measure for `C[C@@H]1C(=O)O[C@H]2C[C@]34[C@@H]5OC(=O)[C@]3(O[C@@H]3OC(=O)[C@H](O)[C@@]34[C@H](C(C)(C)C)[C@H]5O)[C@]21O` [Ginkgolide J]: 0%; for `O=C(O)C1=CO[C@@H](O[C@@H]2O[C@H](CO)[C@@H](O)[C@H](O)[C@H]2O)[C@@H]2C(CO)=C[C@H](O)[C@H]12` [Deacetylasperulosidic Acid]: 20.1%. On the same count and under the same terms, the same measure for `Cc1cc(O)cc(O[C@@H]2O[C@H](CO)[C@@H](O)[C@H](O)[C@H]2O)c1` [Orcinol glucoside]: 0%; for `NC[C@H]1O[C@H](O[C@H]2[C@H](O)[C@@H](O[C@H]3O[C@H](CO)[C@@H](O)[C@H](N)[C@H]3O)[C@H](N)C[C@@H]2N)[C@H](N)C[C@@H]1O` [Tobramycin]: 12%; for `O=C(/C=C/c1ccc(O)c(O)c1)OC1(C(=O)O)C[C@@H](O)C(O)[C@H](O)C1` (some centres unmarked) [1-Caffeoylquinic acid]: 6.7%.

`CSC[C@H]1O[C@@H](n2cnc3c(N)ncnc32)[C@H](O)[C@@H]1O` [5'-Methylthioadenosine]: the “229E Inhibition rate” value turned out to be 14.6%. On the same count and under the same terms, the figure for `O=c1ccoc2cc(O)cc(O)c12` [5,7-Dihydroxychromone] is 0%; for `c1c2c(cc3c1OCO3)-c1cc3cc4c(cc3c[n+]1CC2)OCO4` [Pseudocoptisine (chloride)] it is 8.5%; for `C=C[C@@H]1C2=CCOC(=O)C2=CO[C@H]1O[C@@H]1O[C@H](CO)[C@@H](O)[C@H](O)[C@H]1O` [Gentiopicroside] it is 10.3%. Still for that read-out and setting: the same measure for `N[C@H]1CONC1=O` [L-Cycloserine]: 39.8%; for `COc1cc(OC)c2ccc(=O)oc2c1` [Citropten]: 25.4%. Consider `COC(=O)C1=COC(O[C@@H]2O[C@H](CO)[C@@H](O)[C@H](O)[C@H]2O)/C(=C/C(=O)O)C1CC(=O)OCCc1ccc(O)c(O)c1` (some centres unmarked) [Oleuropeinic acid], for which the “229E Inhibition rate” value is recorded as 10%. As to `COC(=O)C1=CO[C@@H](O[C@@H]2O[C@H](CO)[C@@H](O)[C@H](O)[C@H]2O)[C@H]2[C@@H]1C(=O)C[C@@H]2C` [Verbenalin], the “229E Inhibition rate” value is given as 40.7%. Still for that read-out and setting: the same measure for `C[C@@H]1O[C@@H](O[C@H]2CC[C@]3(C=O)[C@H]4CC[C@]5(C)[C@@H](C6=CC(=O)OC6)CC[C@]5(O)[C@@H]4CC[C@]3(O)C2)[C@H](O)[C@H](O)[C@H]1O` [Convallatoxin]: 39.7%; for `COc1cccc(C(=O)O)c1` [3-Methoxybenzoic acid]: 5.8%; for `COc1cc(C=O)cc(OC)c1O` [Syringaldehyde]: 17.5%. On the same count and under the same terms, the figure for `O=c1c(O)c(-c2ccc(O)cc2)oc2cc(O)cc(O)c12` [Kaempferol] is 31.8%; for `O=c1c2c3c(ccc2cc2n1CCc1cc4c(cc1-2)OCO4)OCO3` [8-Oxocoptisine] it is 18.1%. Same read-out and setting: the same measure for `COC(=O)C1=CO[C@@H](O)[C@@H]2C(CO)=CC[C@H]12` [Genipin]: 26.3%. With `C=CCc1ccc(O)c(-c2ccc(OC)c(CC=C)c2)c1` [4-O-Methyl honokiol], the “229E Inhibition rate” value is given as 41.3%.
